No constants are given. Whether binding was seen depends on the method and setting. Binding seen in cells or lysates may run through a third protein. Some binding calls cover weakened binding; strength is not graded here. For part of these data: Where a sequence is shown, tags or fusion partners need not be part of it.
T1: TgQCR11-FLAG (Toxoplasma gondii) (UniProt S7UR33)
T1 sequence: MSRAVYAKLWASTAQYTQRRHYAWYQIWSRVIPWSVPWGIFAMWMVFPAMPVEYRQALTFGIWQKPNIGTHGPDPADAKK

By UniProt entry, the sequences of proteins in these tests, tags left out.
UniProt A0A125YN38: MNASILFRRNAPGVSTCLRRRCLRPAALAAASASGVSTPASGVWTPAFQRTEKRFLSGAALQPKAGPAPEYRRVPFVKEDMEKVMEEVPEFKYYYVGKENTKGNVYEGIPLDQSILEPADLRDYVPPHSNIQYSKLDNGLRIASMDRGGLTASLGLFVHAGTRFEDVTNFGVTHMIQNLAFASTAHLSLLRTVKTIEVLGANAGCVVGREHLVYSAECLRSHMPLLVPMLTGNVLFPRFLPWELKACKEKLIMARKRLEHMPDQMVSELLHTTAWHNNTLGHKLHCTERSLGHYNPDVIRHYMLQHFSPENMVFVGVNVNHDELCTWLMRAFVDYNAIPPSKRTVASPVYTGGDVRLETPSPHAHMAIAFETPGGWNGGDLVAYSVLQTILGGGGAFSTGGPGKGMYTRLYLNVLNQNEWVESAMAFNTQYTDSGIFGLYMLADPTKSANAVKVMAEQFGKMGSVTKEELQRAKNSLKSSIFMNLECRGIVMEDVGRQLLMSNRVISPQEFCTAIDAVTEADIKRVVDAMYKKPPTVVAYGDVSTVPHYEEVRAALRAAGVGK
UniProt A0A125YW19: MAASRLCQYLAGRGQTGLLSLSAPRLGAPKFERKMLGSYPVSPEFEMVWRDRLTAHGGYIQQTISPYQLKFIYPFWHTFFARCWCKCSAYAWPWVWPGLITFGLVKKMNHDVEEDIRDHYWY
UniProt A0A125YZN9: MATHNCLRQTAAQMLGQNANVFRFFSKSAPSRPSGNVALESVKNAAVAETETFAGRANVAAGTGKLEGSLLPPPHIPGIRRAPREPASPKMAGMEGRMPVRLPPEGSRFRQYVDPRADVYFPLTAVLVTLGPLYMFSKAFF

T2: TgQCR9-FLAG (Toxoplasma gondii) (UniProt S7UVH4)
T2 sequence: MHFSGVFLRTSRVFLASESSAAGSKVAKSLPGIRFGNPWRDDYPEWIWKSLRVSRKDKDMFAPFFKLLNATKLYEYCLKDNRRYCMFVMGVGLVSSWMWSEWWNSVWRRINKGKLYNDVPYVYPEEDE

B1: TgQCR11-FLAG (protein, UniProt S7UR33 1-80)
chain: T1 sequence
B2: TgCytC1-HA (protein, UniProt S7W9J5 1-398)
chain: MGGGGGGALNKLFPGYKDKIWMKVPVQWRQQMIQHWNKSYEKQVYSESVALNRTFQARNQLVLDRLKPSGAYRLPAVDYKRQLSRGTLVEGADFYLPTAQEQQRLARHFEPYSEQEQEERRKFRFQSISVYLAVALGASFVHDYFYQRRPVAWCLEKEPPHPPSYPFWFKSLFHSHDIPSVRRGYEVYRKVCATCHSMEQLHFRHLVGEVLPEKRVKQIAAEYDVTDGPNDQGEMYTRPGILGDAFPSPYPNEEAARYANGGAYPPDLSLITAARHFGPDYLMALLGGYRDPPEGVELRPGLYWNVWFPGNAIAMPPPLMDEMIDYEDGTPCNISQMSKDVVNFLTWATEPTADERKLYGLKCVSAIAIGTVLMTLWWRFYWAMYATRRIDFGKLKYL
B3: TgQCR9-FLAG (protein, UniProt S7UVH4 1-128)
chain: T2 sequence

What was measured:
Assay in all cases: co-IP; parasite samples solubilized in 1% (v/v) Triton X-100; anti-HA affinity matrix or anti-FLAG M2 affinity gel; Total, Unbound and Bound fractions on SDS-PAGE, western blots with anti-HA, anti-FLAG and anti-TgTom40
[1] = target: T1, TgQCR11-FLAG (Toxoplasma gondii)
[2] = target: TgQCR12-FLAG (Toxoplasma gondii)
[3] = target: TgQCR8-FLAG (Toxoplasma gondii)
[4] = target: T2, TgQCR9-FLAG (Toxoplasma gondii)
[5] = target: TgMPPα-HA (Toxoplasma gondii)

Molecule | binding [1] | binding [5] | further results
TgMPPα-HA (from UniProt A0A125YN38 1-563) | binds |  | binding [2]: binds; binding [3]: binds; binding [4]: binds
TgQCR8-FLAG (from UniProt A0A125YW19 1-122) |  | binds | 
TgQCR12-FLAG (from UniProt A0A125YZN9 1-141) |  | binds | 
B1 |  | binds | 
B2 | binds |  | 
B3 |  | binds | 
